The values below come from paper PMC9947773, “Modeling C3 glomerulopathies: C3 convertase regulation on an extracellular matrix surface” (Frontiers in Immunology, 2022).

By UniProt entry, the sequences of proteins in these tests, tags left out. Where a name states a change or a piece, a line headed by the entry shows the natural chain unless it says otherwise. Chains listed by the source or under a name are the forms on record and can include a tag or linker. Residues count along the entry.
UniProt P01024: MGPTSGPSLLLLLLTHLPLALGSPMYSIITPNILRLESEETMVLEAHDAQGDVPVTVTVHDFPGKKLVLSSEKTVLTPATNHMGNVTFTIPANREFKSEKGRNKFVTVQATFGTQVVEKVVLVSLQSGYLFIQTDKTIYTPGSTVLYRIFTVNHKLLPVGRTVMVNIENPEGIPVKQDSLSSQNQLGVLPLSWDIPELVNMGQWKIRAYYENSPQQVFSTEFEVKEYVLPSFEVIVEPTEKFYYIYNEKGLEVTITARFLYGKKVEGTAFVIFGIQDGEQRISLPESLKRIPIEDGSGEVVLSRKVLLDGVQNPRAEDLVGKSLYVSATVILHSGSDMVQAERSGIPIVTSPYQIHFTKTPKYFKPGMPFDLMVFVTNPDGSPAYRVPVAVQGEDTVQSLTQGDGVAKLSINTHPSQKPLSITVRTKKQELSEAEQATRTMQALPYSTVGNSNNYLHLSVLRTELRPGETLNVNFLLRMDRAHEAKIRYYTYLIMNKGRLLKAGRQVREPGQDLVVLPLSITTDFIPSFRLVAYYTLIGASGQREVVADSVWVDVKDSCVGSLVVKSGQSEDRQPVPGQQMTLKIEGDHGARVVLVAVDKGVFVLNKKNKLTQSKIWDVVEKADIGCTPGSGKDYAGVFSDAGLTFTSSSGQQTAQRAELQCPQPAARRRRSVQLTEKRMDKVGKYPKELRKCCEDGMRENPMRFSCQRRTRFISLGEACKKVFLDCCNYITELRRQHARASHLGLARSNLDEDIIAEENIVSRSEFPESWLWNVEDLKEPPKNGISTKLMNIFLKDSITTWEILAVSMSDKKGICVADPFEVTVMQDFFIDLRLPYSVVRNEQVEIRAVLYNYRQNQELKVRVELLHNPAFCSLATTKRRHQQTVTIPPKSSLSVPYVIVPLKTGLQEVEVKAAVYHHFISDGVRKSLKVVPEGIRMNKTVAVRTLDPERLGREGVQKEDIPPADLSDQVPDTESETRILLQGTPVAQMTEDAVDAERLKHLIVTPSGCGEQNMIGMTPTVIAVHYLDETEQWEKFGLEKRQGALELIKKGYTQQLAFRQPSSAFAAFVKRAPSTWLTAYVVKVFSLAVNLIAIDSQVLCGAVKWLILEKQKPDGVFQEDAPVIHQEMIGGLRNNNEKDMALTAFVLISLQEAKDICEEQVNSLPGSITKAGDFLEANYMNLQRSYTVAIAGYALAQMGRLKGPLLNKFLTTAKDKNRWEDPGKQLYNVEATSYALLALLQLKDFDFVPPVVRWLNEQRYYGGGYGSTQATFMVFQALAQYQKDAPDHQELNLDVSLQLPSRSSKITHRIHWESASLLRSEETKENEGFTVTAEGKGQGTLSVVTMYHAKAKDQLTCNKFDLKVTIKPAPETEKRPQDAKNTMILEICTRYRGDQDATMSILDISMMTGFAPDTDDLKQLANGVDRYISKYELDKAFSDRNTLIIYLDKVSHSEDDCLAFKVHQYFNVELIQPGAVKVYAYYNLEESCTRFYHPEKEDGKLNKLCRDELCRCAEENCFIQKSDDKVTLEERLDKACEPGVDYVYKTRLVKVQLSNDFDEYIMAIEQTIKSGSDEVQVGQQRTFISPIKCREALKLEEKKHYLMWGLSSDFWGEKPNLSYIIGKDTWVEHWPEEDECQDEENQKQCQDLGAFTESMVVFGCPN
Recombinant WT Factor H (FH his) (P08603, residues 19-1231): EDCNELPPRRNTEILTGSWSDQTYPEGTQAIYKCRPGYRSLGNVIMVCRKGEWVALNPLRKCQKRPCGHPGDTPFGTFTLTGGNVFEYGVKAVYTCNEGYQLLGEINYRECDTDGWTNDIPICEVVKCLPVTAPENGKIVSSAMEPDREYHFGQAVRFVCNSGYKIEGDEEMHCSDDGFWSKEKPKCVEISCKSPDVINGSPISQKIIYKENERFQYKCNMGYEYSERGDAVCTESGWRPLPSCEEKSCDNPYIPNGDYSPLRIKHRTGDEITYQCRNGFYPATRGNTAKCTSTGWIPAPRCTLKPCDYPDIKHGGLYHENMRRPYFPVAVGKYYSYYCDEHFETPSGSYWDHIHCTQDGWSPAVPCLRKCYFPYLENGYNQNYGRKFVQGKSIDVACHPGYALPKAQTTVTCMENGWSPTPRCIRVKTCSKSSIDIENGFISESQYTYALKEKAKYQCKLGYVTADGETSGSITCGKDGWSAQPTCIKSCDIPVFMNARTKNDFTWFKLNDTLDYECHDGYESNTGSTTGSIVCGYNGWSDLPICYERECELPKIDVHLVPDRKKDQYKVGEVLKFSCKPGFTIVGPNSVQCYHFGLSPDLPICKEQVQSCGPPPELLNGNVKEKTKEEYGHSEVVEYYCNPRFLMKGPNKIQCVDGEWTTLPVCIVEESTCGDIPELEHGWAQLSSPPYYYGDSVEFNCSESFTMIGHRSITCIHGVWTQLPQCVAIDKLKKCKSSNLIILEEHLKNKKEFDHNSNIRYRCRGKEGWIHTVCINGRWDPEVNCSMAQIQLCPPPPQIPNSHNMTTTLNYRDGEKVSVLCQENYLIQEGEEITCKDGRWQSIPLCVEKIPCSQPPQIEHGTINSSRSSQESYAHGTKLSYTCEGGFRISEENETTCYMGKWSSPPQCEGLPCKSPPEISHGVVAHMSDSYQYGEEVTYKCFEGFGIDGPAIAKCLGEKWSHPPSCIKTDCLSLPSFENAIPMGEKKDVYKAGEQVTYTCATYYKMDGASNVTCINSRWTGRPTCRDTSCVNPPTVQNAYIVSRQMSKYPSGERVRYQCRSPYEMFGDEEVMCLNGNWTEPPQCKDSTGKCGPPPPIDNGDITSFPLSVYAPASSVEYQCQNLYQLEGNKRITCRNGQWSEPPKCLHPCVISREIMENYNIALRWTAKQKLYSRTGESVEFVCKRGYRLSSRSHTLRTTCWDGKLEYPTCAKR
Recombinant Factor H p.Arg53Cys (P08603, form named): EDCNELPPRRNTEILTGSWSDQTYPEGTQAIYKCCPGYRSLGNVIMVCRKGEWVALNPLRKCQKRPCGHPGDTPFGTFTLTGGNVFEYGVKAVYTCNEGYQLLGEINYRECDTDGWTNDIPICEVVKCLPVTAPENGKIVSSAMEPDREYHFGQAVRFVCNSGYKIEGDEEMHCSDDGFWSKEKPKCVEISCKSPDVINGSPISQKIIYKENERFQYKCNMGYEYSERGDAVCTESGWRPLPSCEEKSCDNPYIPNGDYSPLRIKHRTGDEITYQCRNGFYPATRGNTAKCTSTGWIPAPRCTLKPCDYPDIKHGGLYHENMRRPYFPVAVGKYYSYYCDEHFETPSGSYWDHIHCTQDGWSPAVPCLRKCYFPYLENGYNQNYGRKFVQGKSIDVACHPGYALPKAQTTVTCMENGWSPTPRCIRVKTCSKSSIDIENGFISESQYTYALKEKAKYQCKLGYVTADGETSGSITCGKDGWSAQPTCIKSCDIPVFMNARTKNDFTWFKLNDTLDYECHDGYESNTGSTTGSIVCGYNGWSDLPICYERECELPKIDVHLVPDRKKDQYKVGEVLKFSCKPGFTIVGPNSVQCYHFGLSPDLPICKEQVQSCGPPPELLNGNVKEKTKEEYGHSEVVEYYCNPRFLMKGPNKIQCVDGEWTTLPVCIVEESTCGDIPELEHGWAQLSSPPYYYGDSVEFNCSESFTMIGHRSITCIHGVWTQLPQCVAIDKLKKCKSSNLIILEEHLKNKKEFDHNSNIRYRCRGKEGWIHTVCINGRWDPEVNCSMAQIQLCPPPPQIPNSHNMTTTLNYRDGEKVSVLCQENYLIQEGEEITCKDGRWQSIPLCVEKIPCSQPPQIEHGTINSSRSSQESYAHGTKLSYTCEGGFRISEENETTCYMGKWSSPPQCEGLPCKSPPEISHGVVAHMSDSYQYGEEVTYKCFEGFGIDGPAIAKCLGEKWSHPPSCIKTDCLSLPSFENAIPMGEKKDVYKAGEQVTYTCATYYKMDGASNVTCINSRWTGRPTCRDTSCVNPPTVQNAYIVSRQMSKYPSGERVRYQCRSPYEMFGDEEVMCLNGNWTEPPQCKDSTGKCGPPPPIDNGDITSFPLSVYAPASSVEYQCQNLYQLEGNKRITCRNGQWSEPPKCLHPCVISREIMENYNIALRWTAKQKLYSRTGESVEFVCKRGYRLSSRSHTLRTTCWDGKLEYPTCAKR

Results are given in words; binding and its absence hold for the method and conditions named. Some entries that bind do so weakly or less than the wild type.

This assay deals with T1, C3b (human, UniProt P01024 23-667; P01024 749-1663).
T1 construct: complement C3, human; beta chain of C3b; alpha' chain of C3b (alpha chain without C3a); Coated on MaxGel (ECM) in microtiter wells at 130 ug/ml; also called purified C3b; source: bought: Complement Technology Inc., purified
Put plainly: C3 convertase formation assay (C3CFA), elution and western blot for Bb; C3b coated on MaxGel; FB + FD with Factor H or a Factor H variant as reactant (22.5 ug/ml), 10 min at 37°C; washed x3; eluted; both purified.

As for “Recombinant Factor H p.Arg53Cys (from UniProt P08603 19-1231)”, the binding entry was “binds”. The entry for “Recombinant WT Factor H (FH his) (from UniProt P08603 19-1231)” is “binds”.
